Assay results published in article PMC6706905.
No constants are given. Whether binding was seen depends on the method and setting. Binding seen in cells or lysates may run through a third protein. Some results given as binding are weak or reduced against the parent protein; the word gives no strength.

Sequences of proteins named here, by UniProt entry; tags and fusion partners are left off.
UniProt P21453: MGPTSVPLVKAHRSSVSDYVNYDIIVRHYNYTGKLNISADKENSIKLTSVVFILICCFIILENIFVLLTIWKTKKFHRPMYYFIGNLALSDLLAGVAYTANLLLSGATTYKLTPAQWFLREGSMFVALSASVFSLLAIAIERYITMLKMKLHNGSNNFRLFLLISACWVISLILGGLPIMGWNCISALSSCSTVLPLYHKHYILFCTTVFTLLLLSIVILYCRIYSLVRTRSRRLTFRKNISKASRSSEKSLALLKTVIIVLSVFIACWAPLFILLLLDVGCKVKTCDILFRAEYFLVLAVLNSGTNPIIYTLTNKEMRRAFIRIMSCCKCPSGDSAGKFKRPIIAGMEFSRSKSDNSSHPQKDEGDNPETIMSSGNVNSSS
UniProt P40763: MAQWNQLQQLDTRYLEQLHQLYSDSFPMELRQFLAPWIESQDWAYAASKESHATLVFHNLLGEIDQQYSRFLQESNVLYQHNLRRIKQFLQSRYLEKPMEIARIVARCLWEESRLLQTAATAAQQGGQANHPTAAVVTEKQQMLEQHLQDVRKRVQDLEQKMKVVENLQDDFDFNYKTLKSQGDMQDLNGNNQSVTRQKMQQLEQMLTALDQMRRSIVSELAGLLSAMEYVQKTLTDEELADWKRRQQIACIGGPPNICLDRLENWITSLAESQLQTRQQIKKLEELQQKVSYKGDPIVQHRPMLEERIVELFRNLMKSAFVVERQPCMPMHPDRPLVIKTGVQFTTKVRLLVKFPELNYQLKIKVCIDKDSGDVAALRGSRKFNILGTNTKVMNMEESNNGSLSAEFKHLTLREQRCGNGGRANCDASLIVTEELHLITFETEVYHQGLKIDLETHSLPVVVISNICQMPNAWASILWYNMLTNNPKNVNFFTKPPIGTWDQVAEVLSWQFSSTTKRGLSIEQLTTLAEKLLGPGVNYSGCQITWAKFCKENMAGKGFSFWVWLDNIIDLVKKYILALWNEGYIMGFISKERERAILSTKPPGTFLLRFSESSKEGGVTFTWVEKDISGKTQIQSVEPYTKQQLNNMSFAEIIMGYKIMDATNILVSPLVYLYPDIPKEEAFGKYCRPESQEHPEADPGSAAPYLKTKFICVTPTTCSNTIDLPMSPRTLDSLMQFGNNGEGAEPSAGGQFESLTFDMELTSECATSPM

Target: Sphingosine-1-phosphate receptor 1 (S1PR1) (human (endogenous in TE-13)) (UniProt P21453)
Experiment: co-IP; TE-13 total lysate incubated with protein A/G agarose and S1PR1 antibody or STAT3 antibody at 4 °C overnight; immune complexes analysed by Western blot with antibodies against S1PR1 and STAT3

- binding: binds
Substance: signal transducing activator of transcription 3 (STAT3) (from UniProt P40763 1-770)
